Measured values taken from PubChem BioAssay AID2685 (National Center for Advancing Translational Sciences (NCATS), 2010).
Where “and” joins values, the source holds several entries; their conditions need not be identical. Equal values may be shown once. This is one part of the list. Further columns of the screen follow, without active or inactive calls. Most of these compounds were active or inconclusive in the main read-out, so they are no random draw. Words in brackets tell the shape of the fitted curve; partial curves, single points and poor fits give uncertain potencies.

Assay: qHTS Assay for Lipid Storage Modulators in Drosophila S3 Cells;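 as to cell number change: cells counted by Cell Tracker Red CMTPX staining in the red channel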
Conditions: BODIPY lipid droplet fluorescence, 18-24 h; for cell number change: measured here: cell count max response, cells fed with added oleic acid
In short: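 Drosophila S3 cells loaded with oleic acid (400 uM, as added) and compounds at several concentrations; lipid droplets imaged by 488-nm laser-scanning cytometry, 500–530 nm intensity and object ratio to cell channel. Percent activity normalized to 20 uM Triacsin C.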

[1] = measured here: lipid fluorescence (Fed channel) AC50, cells fed with added oleic acid
[2] = measured here: cell number channel AC50, cells fed with added oleic acid

Compound	cell number change	AC50 [1]	AC50 [2]
COc1ccc2c(C)c(CC(=O)N3C[C@H]4C[C@@H](C3)c3cccc(=O)n3C4)c(=O)oc2c1C	5.5%	29.1 µM [falling, single point]	–
CCCCc1ccc(NC2=NCCCS2)cc1	6.94%	6.51 µM [rising, single point]	–
COC(=O)C1=C(c2cccc(OCc3ccccc3)c2)C[C@@H]2CC[C@H]1N2C(=O)NCc1ccccc1C(F)(F)F	-11.3%	–	–
O=C1COc2ccc(C(=O)COC(=O)Cc3ccccc3)cc2N1	25%	–	1.3 µM [rising, partial curve]
COc1cccc(NC(=O)N2CCC3(CC2)OCCO3)c1	-20.7%	–	–
CCCN1CC[C@@H]2c3cc(O)ccc3CC[C@@H]21	–	7.31 µM [falling, partial curve]	–
Cc1cc(/C=C2\C(=O)NC(=O)N(c3ccccc3F)C2=O)c(C)n1-c1cc(C(=O)O)cc(C(=O)O)c1	-1.77%	–	–
CN1CCN(C(=O)COc2ccc(C(C)(C)C)cc2Br)CC1	-4.88%	0.0116 µM [falling, full curve, poor fit]	–
Cc1cc2c(C(C)C)c(O)c(O)c(C=O)c2c(O)c1-c1c(C)cc2c(C(C)C)c(O)c(O)c(C=O)c2c1O	-86.9% and -88.1%	9.2 µM [falling, partial curve] and 16.4 µM [falling, partial curve]	9.2 µM [falling, partial curve] and 16.4 µM [falling, partial curve]
Brc1ccc2c(c1)C(OC1CN3CCC1CC3)c1ccccc1CS2 (stereo unspecified)	32.7%	29.1 µM [rising, single point]	29.1 µM [rising, single point]
Cc1cc(Cl)ccc1OC(C)C(=O)O (stereo unspecified)	-14.7%	0.461 µM [falling, full curve, poor fit]	–
CC(C)CCNC(=O)CN1C(=O)CN=C(c2ccccc2)c2ccccc21	14%	–	–
CCC1(c2ccccc2)C(=O)N(C)C(=O)N(C)C1=O	-11.3%	–	0.00461 µM [falling, full curve, poor fit]
CCC1=Nc2cc(C(=O)N3CCC4(CC3)OCCO4)ccc2Sc2ccccc21	13%	3.26 µM [falling, single point]	–
O=c1[nH]c2ccccc2n1C1CCN(CCCC(c2ccc(F)cc2)c2ccc(F)cc2)CC1	-44.7%	29.1 µM [falling, partial curve]	25.9 µM [falling, partial curve]
CCCCOC(=O)C1=C(N)OC2=C(C(=O)CCC2)[C@]12C(=O)N(C)c1ccccc12	–	4.11 µM [falling, partial curve, poor fit]	–
Cc1nc2c(-c3ccc(F)cc3)c(C)nn2c(C)c1CCC(=O)N1CCC2(CC1)OCCO2	-29.1%	6.51 µM [rising, single point]	–
CC(NC1CCCCC1)C(O)C12CC3CC(CC(C3)C1)C2 (stereo unspecified)	-0.643%	0.731 µM [falling, single point]	–
C[C@H](NC(=O)N1C[C@H]2C[C@@H](C1)c1cccc(=O)n1C2)C(=O)Nc1ccccc1F	11.4%	–	–

Compound	cell number change	AC50 [1]	AC50 [2]
O=C(C1CC(c2ccccc2O)=NO1)N1CCC2(CC1)OCCO2 (stereo unspecified)	33.5%	–	16.4 µM [rising, single point]
CCN1CCN(Cc2cc(C(C)(C)C)c(O)c(C(C)(C)C)c2)CC1	-34.7%	1.03 µM [falling, full curve]	0.116 µM [falling, full curve, poor fit]
COc1ccccc1-n1c(O)c(/C=N/NC(=S)Nc2ccccc2)c(=O)[nH]c1=S	-25.2%	0.00461 µM [falling, full curve]	–
CCCS(=O)(=O)N1CCCC(C(=O)N2CCC3(CC2)OCCO3)C1 (stereo unspecified)	-41.8%	–	20.6 µM [falling, partial curve, poor fit]
O=C1NC(=O)C(CCc2ccncc2)(Cc2ccc3c(c2)OCO3)C(=O)N1CCc1ccccc1 (stereo unspecified)	56.7%	2.06 µM [rising, partial curve]	1.84 µM [rising, full curve]
CN(C(=O)c1ccco1)C1(c2ccccc2Cl)CCCCC1=O (stereo unspecified)	-21.5%	0.231 µM [falling, full curve, poor fit]	0.146 µM [falling, full curve, poor fit]
COC(=O)C1=C(c2cccc(C#N)c2)C[C@@H]2CC[C@H]1N2C(=O)NCCNC(C)=O	3.5%	25.9 µM [rising, single point]	–
Cc1ccccc1NC1=NCC(C)S1 (stereo unspecified)	-5.4%	–	1.84 µM [rising, partial curve, poor fit]
Cc1cc(/C=C2\C(=O)NC(=O)N(Cc3ccccc3)C2=O)c(C)n1C1CC1	29.1%	–	–
C[C@]12CCC(=O)C=C1CCC1C2CC[C@@]2(C)C1CC[C@@]2(O)CC#N (stereo partly specified)	-32.5%	–	23.1 µM [falling, single point]
CCCN(CCC)CCNS(=O)(=O)c1ccc2c(c1)oc(=O)n2C	–	–	29.1 µM [falling, single point]
CC(C)c1ccc(N2C(=O)NC(=O)/C(=C/C=C/c3ccco3)C2=O)cc1	-36.3%	10.3 µM [falling, partial curve]	11.6 µM [falling, partial curve]
COc1ccc(C2SCC(=O)Nc3c2c(C)nn3-c2ccccc2)cc1OC (stereo unspecified)	-10.7%	0.58 µM [falling, full curve, poor fit]	–
OC1(c2cccnc2)CC2CCC(C1)N2Cc1nnnn1Cc1ccccc1 (stereo unspecified)	4.97%	7.31 µM [rising, partial curve]	–
CC(=O)N(C1=NCCCS1)c1ccccc1F	2.3%	6.51 µM [falling, single point]	–
O=C(Cc1ccccc1)OCCNC(=O)c1cccnc1	42.9%	–	2.91 µM [rising, partial curve]
CCCCn1c(O)c(C=NCCN2CCCCC2)c(=O)[nH]c1=O	0.862%	–	–
O=C1CCN(C(=O)CNC(=O)Cc2ccccc2)CC1	23.9%	29.1 µM [rising, single point]	–

As a short view, some entries already given:
Compound	cell number change	AC50 [1]	AC50 [2]
OC1(c2cccnc2)CC2CCC(C1)N2Cc1nnnn1Cc1ccccc1 (stereo unspecified)	4.97%	7.31 µM [rising, partial curve]	–
CC(=O)N(C1=NCCCS1)c1ccccc1F	2.3%	6.51 µM [falling, single point]	–
